Results are given in words; binding and its absence hold for the method and conditions named. Some results given as binding are weak or reduced against the parent protein; the word gives no strength.
Biological target: SmG-His (human) (UniProt P62308)
Assay: co-purification (co-expression, nickel affinity, heparin chromatography); subunits co-expressed in E. coli BL21 (DE3), one subunit His-tagged and captured on a HisTrap FF column (20 mM Tris pH 7.5, 0.5 or 1 M NaCl), then HiTrap Heparin column

Protein sequences, listed by entry. Tags and fused reporters are not part of them.
UniProt P62308: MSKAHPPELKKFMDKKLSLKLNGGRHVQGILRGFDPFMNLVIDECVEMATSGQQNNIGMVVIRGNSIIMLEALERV
UniProt P62304: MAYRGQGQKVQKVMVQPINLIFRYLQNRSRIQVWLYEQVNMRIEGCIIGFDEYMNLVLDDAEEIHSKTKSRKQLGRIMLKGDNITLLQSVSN

- binding: binds
Substance: SmE (from UniProt P62304 1-92)

Source: publication PMC12477566
